Measured values: patent publication US9877978B2, “Compositions comprising NDGA derivatives and sorafenib and their use in treatment of cancer” (THE JOHNS HOPKINS UNIVERSITY, priority 2012, dated 2018)

Tested on: HepG2 human HCC cells
Assay: MTT cytotoxicity assay with median-effect / combination index analysis
Type: cell-based
Conditions: HepG2, 24-Hour Treatment
Experimental: Cytotoxicity assay. […] M4N was used at concentrations between 0 and 80 μM. For the combination of M4N and sorafenib a constant molar ratio of 2:1 (M4N:sorafenib) was used. Twenty four hours after drug addition, cytotoxicity was assessed with the MTT assay with […] measured with a Power Wave 200 microplate reader.
Evaluation of drug interactions. The combination index (CI) isobologram method of Chou and Talalay, which is based on the median-effect principle, was used to calculate synergism or antagonism for the combined drug effects. Dose-effect curves for the two drugs, singly and in combination, in serially diluted concentrations were plotted using the median-effect equation and plot and the CI equation and plot. CI values at different effect and dose levels and isobolograms were generated automatically using the computer software CompuSyn. With this method, additive, synergistic, or antagonistic effects are indicated by CI values of 1, <1, and >1, respectively. Comparison of the ratio of doses required to reach a given effect level for each single drug and the drugs in combination was used to determine the dose-reduction.

Structure (SMILES) | m, shape of the dose-effect curve
CNC(=O)c1cc(Oc2ccc(NC(=O)Nc3ccc(Cl)c(C(F)(F)F)c3)cc2)ccn1 [sorafenib] | 0.41
COc1ccc(C[C@@H](C)[C@@H](C)Cc2ccc(OC)c(OC)c2)cc1OC [M4N, tetra-O-methyl nordihydroguaiaretic acid] | 2.76
